Laboratory results from PubChem BioAssay AID504850 (National Center for Advancing Translational Sciences (NCATS), 2011).
The campaign covered roughly 2,300 compounds. About 1,200 (52%) were called active. So high a share suggests a set chosen from earlier hits. The inconclusive results got no clear call from the source; some entries with a clear call stand among them for comparison. Calls follow the shape of the dose curve; as a rule, active = well fitted inhibition curve with a large enough effect; inconclusive = small, poorly fitted or top-dose-only effect, or effect the other way; inactive = no such curve, though single readings can be large or run the other way. Potencies of inconclusive entries are doubtful fits and often do not repeat.

Assay: Confirmation screen for delayed death inhibitors of the malarial parasite plastid, 48 hour incubation; also: nearly all actives have a fitted effect of over 65% in size
Settings: P. falciparum-infected erythrocytes, luciferase growth; series mostly up to 28.7 µM
Procedure, shortened: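 Single-generation (48 h, 37 C) exposure of integrated firefly luciferase-reporter P. falciparum in red cells, 0.1% parasitemia at 2% hematocrit, Albumax-supplemented RPMI. Falling luciferase signal marks parasite growth inhibition.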
Potency is read from the fitted curve at half-maximal effect.

SMILES	Potency
CSc1ncccc1C(=O)NC1CC(C)(C)Cc2c1cnn2-c1ccccc1C (stereo unspecified)	inconclusive: 12.6 µM [inhibitor, single point]
Cc1n[nH]c(=S)n(/N=C/c2ccccn2)c1=O	inconclusive: 15.8 µM [inhibitor, single point]
CCOC(=O)[C@H]1[C@H]2COc3cc(OC)ccc3[C@@H]2N2C(=O)N(c3ccc(Cl)cc3)C(=O)[C@@]12C	active: 12.6 µM
N=c1c2c3c(sc2ncn1Cc1ccccc1)CCCC3	inconclusive: 14.1 µM [inhibitor, single point]
O=C(Cn1c(=O)oc2ccc(Cl)cc21)NC1CCCCC1	inconclusive: 15.8 µM [inhibitor, single point]
C#CC[N+]1(CC#Cc2ccc(C#CC[N+]3(CC#C)CCOCC3)cc2)CCOCC1	inconclusive: 12.6 µM [inhibitor, partial curve]
CCN(CC)C(=O)COc1coc(CN2CCN(c3cccc(Cl)c3)CC2)cc1=O	inconclusive: 11.2 µM [inhibitor, partial curve]
COC(=O)C(Cc1ccc(OC(=O)c2ccc(C(F)(F)F)cc2)cc1)N1Cc2ccccc2C1=O (stereo unspecified)	inconclusive: 8.91 µM [activator, partial curve]
O=C(NNC(=O)c1ccc(Br)s1)c1ccc(F)c(S(=O)(=O)N2CCOCC2)c1	inactive
CCCc1[nH]nc2c1C(c1cc(OC)ccc1F)C(C#N)=C(N)O2 (stereo unspecified)	inconclusive: 0.501 µM [inhibitor, full curve, poor fit]
O=C(CCCN1C(=O)/C(=C\c2cccs2)SC1=S)Nc1ccc(O)cc1	active: 11.2 µM
CCCSc1sc(C(=O)OC)c(-c2cccs2)c1C#N	inconclusive: 15.8 µM [inhibitor, single point]
COC(=O)N/N=C(\C)c1ccccc1OC(F)F	inconclusive: 15.8 µM [inhibitor, single point]
COc1ccc(/C=C/C(=O)c2ccc(NS(=O)(=O)c3ccc(C)cc3)cc2)cc1O	active: 7.94 µM
CCN=c1scc(-c2ccccc2)n1/N=C/c1ccccn1	inconclusive: 7.94 µM [inhibitor, partial curve, poor fit]
Nc1nc(SCC(=O)NCC2CCCO2)[nH]c(=O)c1NC(=O)c1ccc(F)c(F)c1 (stereo unspecified)	active: 12.6 µM
O=C(Nn1c(-c2ccccc2)nc2ccccc2c1=O)c1ccco1	inactive
COc1cccc(NC(=O)C2CCN(S(=O)(=O)c3ccc4[nH]c(=O)oc4c3)CC2)c1	inactive
COC(=O)c1ccc(CNCC(=O)Nc2ccc(C(=O)OC)cc2)cc1	inactive
COCCNCC(=O)NC12CC3CC(CC(C3)C1)C2	inactive
Cc1ccc(Cn2ccnc2SCC(=O)NC2CCCC2)cc1	inconclusive: 15.8 µM [inhibitor, single point]
CCOc1cc(/C=C/c2cc(C(F)(F)F)[nH]c(=O)n2)ccc1O	inconclusive: 22.4 µM [inhibitor, single point]
COc1cc(/C=C2\C(=N)N3N=C(N4CCOCC4)SC3=NC2=O)ccc1OC(=O)c1ccccc1	inconclusive: 10 µM [inhibitor, partial curve, poor fit]

SMILES	Potency
Cc1ccccc1-c1cc(C(=O)n2cccn2)c2cc(Cl)ccc2n1	inactive
COc1ccc(C)cc1NC(=O)c1ccccc1N(C)S(=O)(=O)c1ccccc1	inconclusive: 15.8 µM [inhibitor, single point]
Cc1cccc(CSc2cccc3cccnc23)c1	inconclusive: 17.8 µM [inhibitor, single point]
C=CCNC(=O)c1onc(CSc2ccccc2CC)c1C(=O)O	inactive
CC(C)NC(=O)c1ccc(Sc2ccccc2)c([N+](=O)[O-])c1	inconclusive: 15.8 µM [inhibitor, partial curve, poor fit]
Fc1ccc(CSc2nncn2NCc2ccc3c(c2)OCO3)cc1	inactive
O=C(Nc1ccccc1[N+](=O)[O-])c1cc(S(=O)(=O)N2CCOCC2)cs1	inconclusive: 10 µM [inhibitor, partial curve, poor fit]
COCc1c(C(=O)OCc2nc(N)nc(Nc3ccccc3C)n2)oc2ccccc12	inconclusive: 12.6 µM [inhibitor, single point]
COc1ccc2c(C)cc(Sc3nnnn3-c3ccccc3)nc2c1	inconclusive: 14.1 µM [inhibitor, single point]
CCOc1ccccc1NC(=S)N1CCN(c2cccc(OC)c2)CC1	inactive
Cc1nn(C)c(C)c1C(C)NC(=O)c1ccc(OC2CCN(Cc3ccccn3)CC2)cc1 (stereo unspecified)	inactive
C=CCn1cccc(/C=C/C(=O)c2ccc(C(C)(C)C)cc2)c1=S	active: 1.26 µM
C=CCNC(=O)c1onc(CSc2cc(C)ccc2C)c1C(=O)O	inactive
COc1cccc(C(=O)NC2CC(C)(C)Cc3c2cnn3-c2cccc(F)c2)c1OC (stereo unspecified)	inconclusive: 14.1 µM [inhibitor, partial curve, poor fit]
CCOc1ccc(-c2cc(C(=O)O)c3ccccc3n2)cc1	inconclusive: 3.98 µM [activator, partial curve]
CN(CCOc1ccccc1)C(=O)C1CCC(=O)N(CCN2CCOCC2)C1 (stereo unspecified)	inactive
Cc1[nH]c2ccc(-c3nnc(SCC(=O)c4ccccc4F)o3)cc2c1C	inconclusive: 15.8 µM [inhibitor, single point]
CCc1nnc(NC(=O)CSc2nc3cccnc3n2C2CCCCC2)s1	inconclusive: 14.1 µM [inhibitor, single point]
COc1ccc(C)c2sc(NC(=O)CCS(=O)(=O)c3ccccc3)nc12	inactive
CC(C)(C(=O)N[C@H](CO)c1ccccc1)C(=O)N[C@H](CO)c1ccccc1	inactive
O=C(Cc1coc2ccc3ccccc3c12)Nc1nnc(C2CC2)s1	inconclusive: 10 µM [inhibitor, partial curve, poor fit]
CC1(C)CC(=O)C=C(NC2=CC3OC(c4ccccc4)OCC3OC2=O)C1 (stereo unspecified)	inactive
CN(CCCN1c2ccccc2CCc2ccccc21)CC(=O)c1ccc(Cl)cc1	inconclusive: 14.1 µM [inhibitor, single point]

Laid out differently: results already given
SMILES | Potency
Cc1nn(C)c(C)c1C(C)NC(=O)c1ccc(OC2CCN(Cc3ccccn3)CC2)cc1 (stereo unspecified) | inactive
C=CCn1cccc(/C=C/C(=O)c2ccc(C(C)(C)C)cc2)c1=S | active: 1.26 µM
